Where “and” joins values, the source holds several entries; their conditions need not be identical. Identical values can stand only once. Listed are the inconclusive results; actives and inactives stand elsewhere. Unless noted, calls come from the whole dose curve; as a rule, active = well fitted curve in the direction sought with a large enough effect in the repeat runs; inconclusive = weak or mixed curves; inactive = no such curve, though single readings can be large; an effect the other way counts as inactive or inconclusive.
Assays:
[1] = qHTS assay for small molecule disruptors of the mitochondrial membrane potential (AID 720635); settings: HepG2 mitochondrial membrane potential, Mito-MPS dye ratio; ratio activity, negative = MMP loss: at 83.2 µM (top of the series); note: % is set by controls: 0 for no effect and ±100 for the full control effect
Procedure, shortened: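 HepG2 cells (2,000/well) attached overnight at 37C, then took compound for 1 hr at 37C, 5% CO2. Mito-MPS dye was added for 30 min; fluorescence was read at 490/535 nm (monomers) and 540/590 nm (aggregates).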

Protein sequences, listed by entry. Tags and fused reporters are not part of them.
UniProt Q96RI1, whole entry: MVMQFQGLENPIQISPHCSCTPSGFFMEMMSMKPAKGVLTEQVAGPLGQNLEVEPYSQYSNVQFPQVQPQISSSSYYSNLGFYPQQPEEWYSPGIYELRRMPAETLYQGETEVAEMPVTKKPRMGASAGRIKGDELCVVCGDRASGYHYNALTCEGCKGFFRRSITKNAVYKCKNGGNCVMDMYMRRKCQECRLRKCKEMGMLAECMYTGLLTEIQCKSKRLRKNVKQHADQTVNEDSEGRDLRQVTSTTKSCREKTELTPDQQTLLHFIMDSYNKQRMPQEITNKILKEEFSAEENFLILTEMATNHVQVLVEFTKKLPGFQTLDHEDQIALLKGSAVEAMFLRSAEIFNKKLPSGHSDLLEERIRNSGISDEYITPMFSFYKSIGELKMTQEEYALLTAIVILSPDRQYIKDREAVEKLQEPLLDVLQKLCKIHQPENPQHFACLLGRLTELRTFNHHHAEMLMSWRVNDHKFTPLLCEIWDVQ
UniProt P10635, whole entry: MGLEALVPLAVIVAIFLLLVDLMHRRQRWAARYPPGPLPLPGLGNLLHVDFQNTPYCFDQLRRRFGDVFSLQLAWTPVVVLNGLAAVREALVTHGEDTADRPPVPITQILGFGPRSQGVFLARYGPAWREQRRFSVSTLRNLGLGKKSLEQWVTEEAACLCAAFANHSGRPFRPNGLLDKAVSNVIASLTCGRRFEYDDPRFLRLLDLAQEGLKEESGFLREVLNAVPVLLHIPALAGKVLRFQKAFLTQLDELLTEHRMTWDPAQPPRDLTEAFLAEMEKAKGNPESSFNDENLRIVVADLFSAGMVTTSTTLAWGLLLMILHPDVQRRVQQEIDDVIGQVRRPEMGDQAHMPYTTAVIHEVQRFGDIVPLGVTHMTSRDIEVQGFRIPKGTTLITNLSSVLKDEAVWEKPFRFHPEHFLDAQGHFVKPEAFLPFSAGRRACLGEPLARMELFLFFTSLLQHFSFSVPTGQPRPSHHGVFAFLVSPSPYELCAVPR
UniProt P33261, whole entry: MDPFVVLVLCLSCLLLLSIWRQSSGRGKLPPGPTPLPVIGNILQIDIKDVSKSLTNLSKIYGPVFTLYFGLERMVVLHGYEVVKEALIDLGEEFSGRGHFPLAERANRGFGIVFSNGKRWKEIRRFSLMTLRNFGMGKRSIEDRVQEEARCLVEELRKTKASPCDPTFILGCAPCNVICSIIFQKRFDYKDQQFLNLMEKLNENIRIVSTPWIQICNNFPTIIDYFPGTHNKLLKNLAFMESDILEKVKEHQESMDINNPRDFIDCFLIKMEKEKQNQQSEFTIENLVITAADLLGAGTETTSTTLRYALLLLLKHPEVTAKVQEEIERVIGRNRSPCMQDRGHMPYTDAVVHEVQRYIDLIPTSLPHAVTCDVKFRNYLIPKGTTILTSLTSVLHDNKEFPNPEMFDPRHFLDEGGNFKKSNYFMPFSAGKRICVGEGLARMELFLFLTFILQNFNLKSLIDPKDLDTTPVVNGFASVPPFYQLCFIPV
UniProt P11712, whole entry: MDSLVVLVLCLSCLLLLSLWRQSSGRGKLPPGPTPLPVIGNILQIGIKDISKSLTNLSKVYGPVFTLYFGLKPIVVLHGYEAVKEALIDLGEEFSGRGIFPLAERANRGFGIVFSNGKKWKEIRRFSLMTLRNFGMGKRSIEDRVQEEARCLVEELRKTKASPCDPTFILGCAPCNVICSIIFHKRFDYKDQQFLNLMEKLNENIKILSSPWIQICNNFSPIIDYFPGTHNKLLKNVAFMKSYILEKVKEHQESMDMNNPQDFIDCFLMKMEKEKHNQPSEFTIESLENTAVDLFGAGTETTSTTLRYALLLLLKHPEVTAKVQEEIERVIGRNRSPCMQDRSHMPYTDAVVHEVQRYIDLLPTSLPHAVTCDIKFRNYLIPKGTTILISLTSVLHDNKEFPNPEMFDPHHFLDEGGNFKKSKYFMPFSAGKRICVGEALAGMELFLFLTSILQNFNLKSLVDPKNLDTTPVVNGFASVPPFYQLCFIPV
UniProt P05177, whole entry: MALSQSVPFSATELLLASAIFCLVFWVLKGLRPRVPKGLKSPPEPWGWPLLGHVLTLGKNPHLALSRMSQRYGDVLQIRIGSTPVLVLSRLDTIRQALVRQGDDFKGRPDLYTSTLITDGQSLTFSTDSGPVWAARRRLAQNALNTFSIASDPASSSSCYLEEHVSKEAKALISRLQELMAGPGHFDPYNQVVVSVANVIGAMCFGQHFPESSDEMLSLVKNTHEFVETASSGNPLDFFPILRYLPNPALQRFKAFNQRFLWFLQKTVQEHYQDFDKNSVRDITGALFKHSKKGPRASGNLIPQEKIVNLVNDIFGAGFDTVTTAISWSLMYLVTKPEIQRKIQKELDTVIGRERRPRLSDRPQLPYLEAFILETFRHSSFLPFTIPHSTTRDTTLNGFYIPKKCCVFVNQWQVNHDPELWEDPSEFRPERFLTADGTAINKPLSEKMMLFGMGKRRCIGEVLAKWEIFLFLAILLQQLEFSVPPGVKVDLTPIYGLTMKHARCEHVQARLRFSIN
UniProt P22303, whole entry: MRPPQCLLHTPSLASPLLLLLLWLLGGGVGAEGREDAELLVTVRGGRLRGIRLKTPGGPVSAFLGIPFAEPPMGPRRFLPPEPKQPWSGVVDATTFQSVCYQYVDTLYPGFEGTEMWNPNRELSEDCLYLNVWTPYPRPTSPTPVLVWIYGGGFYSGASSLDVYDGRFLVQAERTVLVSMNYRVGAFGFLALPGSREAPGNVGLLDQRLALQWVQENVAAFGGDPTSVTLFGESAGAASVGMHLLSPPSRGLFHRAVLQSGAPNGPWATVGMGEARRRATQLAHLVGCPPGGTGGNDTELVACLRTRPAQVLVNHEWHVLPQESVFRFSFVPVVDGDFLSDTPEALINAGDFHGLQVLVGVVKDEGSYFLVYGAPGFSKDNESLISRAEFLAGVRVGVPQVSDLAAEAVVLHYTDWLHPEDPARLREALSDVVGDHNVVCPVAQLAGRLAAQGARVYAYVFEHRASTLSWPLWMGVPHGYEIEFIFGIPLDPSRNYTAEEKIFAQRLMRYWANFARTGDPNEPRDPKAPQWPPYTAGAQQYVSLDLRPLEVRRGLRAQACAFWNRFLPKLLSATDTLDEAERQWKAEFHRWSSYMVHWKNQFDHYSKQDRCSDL

[2] = qHTS assay for identifying genotoxic compounds that show differential cytotoxicity against isogenic chicken DT40 cell lines with known DNA damage response pathways - Rad54/Ku70 mutant cell line (AID 743015); settings: DT40 Rad54/Ku70 mutant viability, CellTiter-Glo, 40 h; note: potency is the fitted concentration of half-maximal effect; nearly all actives have a fitted effect of over 60% in size
Text: National Center for Advancing Translational Sciences [NCATS]
NIH Chemical Genomics Center [NCGC]
U.S. Environmental Protection Agency [EPA]
National Institutes of Environmental Health Sciences [NIEHS]
National Toxicology Program [NTP]
U.S. Food and Drug Administration [FDA]
DNA repair pathways play a critical role in cellular homeostasis by repairing DNA damage induced by endogenous processes and xenobiotics. Isogenic chicken DT40 cell lines deficient in different DNA repair pathways can be used to identify genotoxic compounds and aid in characterizing the nature of the DNA damage induced. Two DNA repair-deficient cell lines with disrupted genes, Rad54/Ku70 or Rev3, were used to screen the Tox21 10K compound library. Possible genotoxicity was based on the presence of a significant increase in cytotoxicity in one or more of the DNA repair-deficient cell lines compared to that observed in the parental DNA repair-proficient cell line. […]
300 DT40 mutant cells in 5 uL/well were dispensed into white, solid-bottom 1536-well plates using a Multidrop Combi (ThermoFisher Scientific, Waltham, MA) dispenser. […] After 5 uL per well of CellTiter-Glo reagent was added into each well of the assay plates, the plates were incubated for 30 min at room temperature and the luminescence intensity of the plates was measured using a ViewLux (PerkinElmer, Shelton, CT) plate reader.

[3] = qHTS assay to identify small molecule antagonists of the peroxisome proliferator-activated receptor gamma (PPARg) signaling pathway - cell viability counter screen (AID 743194); settings: PPARg-bla HEK293H viability, CellTiter-Glo luminescence, 17 h; co-treated with 50 nM rosiglitazone; note: potency is the fitted concentration of half-maximal effect; nearly all actives have a fitted effect of over 55% in size
Procedure, shortened: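 PPARg-UAS-bla HEK293H cells were plated, rested 5 h at 37 C, then treated with compounds plus rosiglitazone (50 nM final) for 17 h at 37 C; viability was then read by CellTiter-Glo luminescence after 30 min at room temperature.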

[4] = qHTS assay for small molecule agonists of the antioxidant response element (ARE) signaling pathway (AID 743202; active = well fitted activation curve with a large enough effect in the signal ratio in the repeat runs, not every such curve was filed as active; inconclusive = weak or mixed curves, or effect the other way; inactive = no such curve, though single readings can be large or run the other way; the % refers to the signal ratio; note: potency is the fitted concentration of half-maximal effect; for activation: % is set by controls: 0 for no effect and ±100 for the full control effect); settings: HepG2 ARE-bla reporter, beta-lactamase FRET, 16 h; activation: at 73.3 µM (top of the series)
Procedure, shortened: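 Compounds delivered in DMSO to ARE-bla HepG2 cells (2,000 cells/well, pre-incubated 5 h) and left 16 h at 37 C. LiveBLAzer B/G FRET substrate then added for 2 h at RT before fluorescence reading.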

[5] = biological target: Bile acid receptor (Homo sapiens) (UniProt Q96RI1); assay: qHTS assay to identify small molecule antagonists of the farnesoid-X-receptor (FXR) signaling pathway (AID 743217; active = well fitted inhibition curve with a large enough effect in the signal ratio in the repeat runs, not every such curve was filed as active; inconclusive = weak or mixed curves, or effect the other way; inactive = no such curve, though single readings can be large or run the other way; the % refers to the signal ratio; note: % is set by controls: 0 for no effect and ±100 for the full control effect); settings: HEK293T FXR-UAS-bla, beta-lactamase ratio, CDCA-stimulated, 16 h; activity change, negative = inhibition: at 62.6 µM (top of the series)
Procedure, shortened: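 GeneBLAzer FXR-UAS-bla HEK 293T, CDCA-stimulated (50 uM final). Compound treatment 16 h, 37 °C. Detection: beta-lactamase cleavage of B/G FRET substrate, fluorescence.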

[6] = qHTS assay to identify small molecule agonists of the farnesoid-X-receptor (FXR) signaling pathway - cell viability counter screen (AID 743218); settings: FXR-bla HEK293T viability, CellTiter-Glo luminescence, 16 h; note: potency is the fitted concentration of half-maximal effect; nearly all actives have a fitted effect of over 45% in size
Procedure, shortened: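 Parallel cytotoxicity test: compound-treated (16 h, 37 C) HEK 293T FXR-bla reporter cells were lysed with CellTiter-Glo and luminescence recorded.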

[7] = qHTS RealTime-Glo MT Cell Viability Assay in HEK293 cells - 16 hour (AID 1224872); settings: RealTime-Glo luminescence; note: potency is the fitted concentration of half-maximal effect; nearly all actives have a fitted effect of over 50% in size
Procedure, shortened: (§1)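 Reads taken at 0, 8, 16, 24, 32 and 40 h from the same wells. HEK293 cells (600/well) carried RealTime-Glo reagents from seeding, with compound added after a 5 h settle at 37 C.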

[8] = qHTS RealTime-Glo MT Cell Viability Assay in HEK293 cells - 40 hour (AID 1224874); settings: RealTime-Glo luminescence; note: potency is the fitted concentration of half-maximal effect; nearly all actives have a fitted effect of over 50% in size
Procedure, shortened: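 Viable HEK293 cells reduce a cell-permeant prosubstrate; the product diffuses out and is consumed by NanoLuc in the medium to give light. Compounds went in after a 5 h incubation and plates were read over the treatment course.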

[9] = qHTS RealTime-Glo MT Cell Viability Assay in HEK293 cells - 24 hour (AID 1224886); settings: RealTime-Glo luminescence; note: potency is the fitted concentration of half-maximal effect; nearly all actives have a fitted effect of over 50% in size
Procedure, shortened: as §1

[10] = qHTS assay to identify small molecule agonists of the sonic hedgehog signaling (Shh) pathway - cell viability counter screen (AID 1259366); settings: NIH/3T3 Gli1-Luc viability, CellTiter-Fluor, 24 h; note: potency is the fitted concentration of half-maximal effect; nearly all actives have a fitted effect of over 50% in size
Procedure, shortened: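 Cytotoxicity counter screen: CellTiter-Fluor reagent added after 23 h compound exposure, then 1 h at 37C and fluorescence read. Cells were 3T3 Gli1-Luc, seeded 2,000 per well and dosed 4 h post-plating.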

[11] = qHTS assay to identify small molecule agonists of the progesterone receptor (PR) signaling pathway - cell viability counter screen (AID 1346799; calls by dose curve; note: potency is the fitted concentration of half-maximal effect; nearly all actives have a fitted effect of over 45% in size); settings: PR-UAS-bla HEK293T viability, CellTiter-Glo luminescence, 16 h
Procedure, shortened: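 Cytotoxicity measured by CellTiter-Glo luminescence (30 min, RT) in the same wells as the PR beta-lactamase agonist read. Those HEK293T cells had 16 h compound treatment at 37 C in 2% charcoal-stripped FBS medium.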

[12] = biological target: Cytochrome P450 2D6 (Homo sapiens) (UniProt P10635); assay: Cytochrome P450 Family 2 Subfamily D Member 6 (CYP2D6) small molecule antagonists: luciferase reporter qHTS assay (AID 1671196); settings: P450-Glo CYP2D6 enzyme assay, luciferin luminescence, 1 h
Procedure, shortened: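 Each well received CYP2D6 with its proluciferin substrate and chemical, sat 10 min, then got NADPH regeneration solution for 1 h at room temperature. Luminescence in RLU served as the activity measure.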

[13] = biological target: Cytochrome P450 2C19 (Homo sapiens) (UniProt P33261); assay: Cytochrome P450 Family 2 Subfamily C Member 19 (CYP2C19) small molecule antagonists: luciferase reporter qHTS assay (AID 1671197); settings: P450-Glo CYP2C19 enzyme, luciferin luminescence, 1 h; note: potency is the fitted concentration of half-maximal effect; nearly all actives have a fitted effect of over 65% in size
Procedure, shortened: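 Quantitative high-throughput screen of the Tox21 library using CYP2C19 with proluciferin substrate. Reaction: NADPH regeneration, 37C, 1 h, after 10 min compound preincubation at room temperature. Readout: luminescence.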

[14] = biological target: Cytochrome P450 2C9 (Homo sapiens) (UniProt P11712); assay: Cytochrome P450 Family 2 Subfamily C Member 9 (CYP2C9) small molecule antagonists: luciferase reporter qHTS assay (AID 1671198); settings: P450-Glo CYP2C9 enzyme assay, luciferin luminescence
Procedure, shortened: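 CYP2C9 activity was measured with a P450-Glo proluciferin substrate. Enzyme–substrate mix was held with compound for 10 min at room temperature, then NADPH regeneration solution was added for 1 h at 37C. Luciferin product was read as luminescence.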

[15] = biological target: Cytochrome P450 1A2 (Homo sapiens) (UniProt P05177); assay: Cytochrome P450 Family 1 Subfamily A Member 2 (CYP1A2) small molecule antagonists: luciferase reporter qHTS assay (AID 1671199); settings: P450-Glo CYP1A2 enzyme, luciferin luminescence, 1 h
[16] = biological target: Acetylcholinesterase (Homo sapiens) (UniProt P22303); assay: Acetylcholinesterase (AChE) small molecule antagonists: colormetric cell-based qHTS assay (AID 1347395; calls by dose curve; note: potency is the fitted concentration of half-maximal effect; nearly all actives have a fitted effect of over 30% in size); settings: SH-SY5Y cells AChE activity, colorimetric (Ellman)
Procedure, shortened: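 Colorimetric readout: DTNB quantifies thiocholine from acetylthiocholine hydrolysed by endogenous AChE of SH-SY5Y cells (2,000/well, plated overnight). Compound pretreatment 30 min, substrate incubation 90 min, both 37 C.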

CCOP(=O)(Cl)Cl
inconclusive: ratio activity, negative = MMP loss [1] 1.6% | Potency [2] 60.1 µM | Potency [3] 19.5 µM | Potency [4] 33.8 µM | activation [4] -2.93% | activity change, negative = inhibition [5] 1.13% | Potency [6] 24.5 µM | Potency [7] 34.7 µM | Potency [8] 19.2 µM | Potency [9] 27.5 µM | Potency [10] 60.1 µM | Potency [11] 21.3 µM | Potency [12] 78.3 µM and 39.9 µM | Potency [13] 87.8 µM | Potency [14] 78.3 µM | Potency [15] 69.8 µM

Cc1cccc([N+](=O)[O-])c1[N+](=O)[O-]
inconclusive: Potency [16] 47.5 µM

C/C1=C2N=C(/C=C3N=C(/C(C)=C4\[N-][C@@](C)([C@@H]5N=C1[C@](C)(CCC(=O)NC[C@@H](C)OP(=O)([O-])O[C@H]1[C@@H](O)[C@@H](n6cnc7cc(C)c(C)cc76)O[C@@H]1CO)[C@H]5CC(N)=O)[C@@](C)(CC(N)=O)[C@@H]4CCC(N)=O)[C@@](C)(CC(N)=O)[C@@H]\3CCC(N)=O)C(C)(C)[C@@H]/2CCC(N)=O.[C-]#N.[Co+3]
inconclusive: Potency [16] 34.7 µM
